Series [1] deals with T1, Arid5a ARID49-152 (human) (UniProt Q03989).
T1 sequence (looked up): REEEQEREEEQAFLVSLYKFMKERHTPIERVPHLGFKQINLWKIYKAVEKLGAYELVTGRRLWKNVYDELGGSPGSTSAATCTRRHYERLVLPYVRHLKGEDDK
As to the kind of experiment: NMR. As to conditions: 20 mM Bis-Tris pH 6.5, 150 mM NaCl, 2 mM TCEP, 0.02% NaN3, NMR at 298 K, recombinant protein, residues 49-152, protein details: cloned in pET-Trx1a (TEV site).

Series [2] has as its target T2, Arid5a ARID37-183 (human) (UniProt Q03989).
T2 sequence (looked up): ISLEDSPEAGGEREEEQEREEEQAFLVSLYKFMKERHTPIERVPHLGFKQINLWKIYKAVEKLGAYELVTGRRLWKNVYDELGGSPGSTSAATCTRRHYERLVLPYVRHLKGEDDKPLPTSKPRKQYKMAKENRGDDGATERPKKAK
The series can be described thus: NMR. As to conditions: 20 mM Bis-Tris pH 6.5, 150 mM NaCl, 2 mM TCEP, 0.02% NaN3, NMR at 298 K, recombinant protein, residues 37-183, protein details: cloned in pET-Trx1a (TEV site).

For series [3], the target named is T3, Arid5a ARID (Homo sapiens) (UniProt Q03989).
T3 sequence (looked up): T1 sequence (looked up)
As to the kind of experiment: pull-down. The following applies: 1 and 5 uM protein, 25 mM Tris pH 7.5, 150 mM KCl, 3 mM MgCl2, purified recombinant protein, residues 49-152, protein details: N-terminal Twin-Strep, kept, only the motif is given.

Series [4] deals with T2, Arid5a ARID37-183 (human). The series can be described thus: EMSA. The following applies: 20 mM Bis-Tris pH 6.5, 150 mM NaCl, 2 mM TCEP, 0.02% NaN3, EMSA plus 10 mM MgCl2 and 0.6 ug yeast tRNA per 20 ul, 22-24 C, recombinant protein, residues 37-183, protein details: cloned in pET-Trx1a (TEV site). (In general: In EMSA bound probe runs differently from free probe, usually more slowly.)

Series [5] deals with T4, ARID37-183 K85A/Q86A (human) (UniProt Q03989).
T4 sequence (looked up): T2 sequence (looked up) with K49A, Q50A
The series can be described thus: NMR. The following applies: 2-fold DNA; 20 mM Bis-Tris pH 6.5, 150 mM NaCl, 2 mM TCEP, 0.02% NaN3; NMR at 298 K; recombinant protein; residues 37-183; protein details: cloned in pET-Trx1a (TEV site).

Series [6] concerns the target T5, ARID37-183 T125A/S126A (human) (UniProt Q03989).
T5 sequence (looked up): T2 sequence (looked up) with T89A, S90A
The series can be described thus: NMR. The following applies: 2-fold DNA, effect less pronounced than in core; 20 mM Bis-Tris pH 6.5, 150 mM NaCl, 2 mM TCEP, 0.02% NaN3; NMR at 298 K; recombinant protein; residues 37-183; protein details: cloned in pET-Trx1a (TEV site).

Series [7] addresses T6, ARID49-152 T125A/S126A (human) (UniProt Q03989).
T6 sequence (looked up): T1 sequence (looked up) with T77A, S78A
The series can be described thus: NMR. As to conditions: 2-fold DNA; 20 mM Bis-Tris pH 6.5, 150 mM NaCl, 2 mM TCEP, 0.02% NaN3; NMR at 298 K; recombinant protein; residues 49-152; protein details: cloned in pET-Trx1a (TEV site).

The target of series [8] is T7, Arid5a ARID37-152 (human) (UniProt Q03989).
T7 sequence (looked up): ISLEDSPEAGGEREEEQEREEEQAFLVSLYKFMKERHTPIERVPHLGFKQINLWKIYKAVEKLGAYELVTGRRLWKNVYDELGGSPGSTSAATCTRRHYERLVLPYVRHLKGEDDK
As to the kind of experiment: EMSA. As to conditions: less pronounced complex band; 20 mM Bis-Tris pH 6.5, 150 mM NaCl, 2 mM TCEP, 0.02% NaN3; EMSA plus 10 mM MgCl2 and 0.6 ug yeast tRNA per 20 ul, 22-24 C; recombinant protein; residues 37-152; protein details: cloned in pET-Trx1a (TEV site); label: 5'-fluorescein on strand 1.

Series [9] addresses T1, Arid5a ARID49-152 (human). The series can be described thus: EMSA. The following applies: less pronounced complex band; 20 mM Bis-Tris pH 6.5, 150 mM NaCl, 2 mM TCEP, 0.02% NaN3; EMSA plus 10 mM MgCl2 and 0.6 ug yeast tRNA per 20 ul, 22-24 C; recombinant protein; residues 49-152; protein details: cloned in pET-Trx1a (TEV site); label: 5'-fluorescein on strand 1.
Series [10] addresses T8, Arid5b extended ARID (human) (UniProt Q14865).
T8 sequence (looked up): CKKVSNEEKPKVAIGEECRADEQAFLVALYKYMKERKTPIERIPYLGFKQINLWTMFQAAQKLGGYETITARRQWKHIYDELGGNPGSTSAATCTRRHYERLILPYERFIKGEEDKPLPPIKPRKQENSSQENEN
The series can be described thus: EMSA. The following applies: 20 mM Bis-Tris pH 6.5, 150 mM NaCl, 2 mM TCEP, 0.02% NaN3; EMSA plus 10 mM MgCl2 and 0.6 ug yeast tRNA per 20 ul, 22-24 C; recombinant protein; residues …; protein details: cloned in pET-Trx1a (TEV site); label: 5'-fluorescein on strand 1.

Series [11] addresses T9, Jarid1a extended ARID (human) (UniProt P29375).
T9 sequence (looked up): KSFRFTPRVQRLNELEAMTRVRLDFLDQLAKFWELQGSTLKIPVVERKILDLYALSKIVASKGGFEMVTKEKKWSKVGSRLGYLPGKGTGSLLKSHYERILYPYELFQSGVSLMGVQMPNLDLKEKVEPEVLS
As to the kind of experiment: EMSA. As to conditions: 20 mM Bis-Tris pH 6.5, 150 mM NaCl, 2 mM TCEP, 0.02% NaN3, EMSA plus 10 mM MgCl2 and 0.6 ug yeast tRNA per 20 ul, 22-24 C, recombinant protein, residues 66-198, protein details: cloned in pET-Trx1a (TEV site), label: 5'-fluorescein on strand 1.

Setting [12] is: no KD could be derived, label: 5'-fluorescein on strand 1.
Setting [13] is: affinity rises with RNA length, label: 5'-32P.

Where a chain is given by its changes, count along the chain named. For part of these data: Weaker means in comparison with the reference protein, sequence or condition of that experiment. Tags and fusion partners may be left off the protein sequences shown. For part of these data: The exact form of at least one protein or probe is not confirmed. For part of these data: At least one verdict rests on a figure or table, not on a statement of the authors.

Experimental findings from PMC11262183, “Arid5a uses disordered extensions of its core ARID domain for distinct DNA- and RNA-recognition and gene regulation” are described below.

As for ACAGGCAGG / CCUGCCUGU [RBNS-9mer dsRNA], in series [1] (2-fold RNA), the binding result is given as “binds more weakly”.

Regarding “ACGAATTCTAATACGACTCACTATAGGGACACTATTTTAATTATTTTTAATTTATTAATATTTAAATATGTGAAGCGCCGGCCATGGTCCCAGCC (double strand) [dsDNA_95mer]”, in series [2] (affinity scales with length), the binding result is “binds”.

On to “CACACCGUUCUAGGUGCUG [19mer_ADE (Ox40 ADE)]”, for which the binding result in series [1] (marginal interaction, up to 3.5-fold RNA) is on record as “binds more weakly”.

For CAUGUCU [7-mer CATGTCT], the binding signal (RBNS z-score of enrichment R) in [3] was -0.006.

In the case of CCCCUGG [7-mer CCCCTGG], the binding signal (RBNS z-score of enrichment R) in series [3] was -0.751.

With CGUACCG [7-mer CGTACCG], the binding signal (RBNS z-score of enrichment R) in [3] (counted as no binding) was -0.948.

CGUCAAU [7-mer CGTCAAT]: in series [3], the binding signal (RBNS z-score of enrichment R) is -0.49.

On to CUCAGUC [7-mer CTCAGTC], for which the binding signal (RBNS z-score of enrichment R) in [3] was -0.579.

For “GAATGCACTGGGCCTGTTTCC (double strand) [dsDNA_21mer]”, the binding result in series [2] (affinity scales with length) is reported as “binds”.

“GAATTCTAATACGACTCACTATAGCATTACTACAGGTTCGCCTGCCTGGTGGTGCGCCGGCCATGGTCCC (double strand) [dsDNA_70mer]”: in series [2] (affinity scales with length), the binding result is reported as “binds”.

Turning to GAGGGCU [7-mer GAGGGCT], the binding signal (RBNS z-score of enrichment R) in [3] (counted as no binding) is -1.33.

“GCACAACACAACG (double strand) [13merAT_var5]”: the binding result in [4] (setting [12]) is “binds more weakly”.

As for “GCACAACGTAACG (double strand) [13merAT_var3]”, the binding result in series [4] (setting [12]) was “binds more weakly”.

Consider GCACAATATAACG (double strand) [13merAT], for which the binding result was “binds” in series [5], “binds more weakly” in series [6] and “binds more weakly” in series [7].

With “GCACAATATAACG (double strand) [FAM-13merAT]”, the binding result in series [8] is “binds more weakly”; in [9], “binds more weakly”; in series [10], “binds”; in series [11] it was “binds”.

As to GCCCCGCCCGCCG (double strand) [13merGC], the binding result in series [2] (fast exchange) and in [1] (2-fold DNA) was “binds more weakly” in each case.

Regarding “GCCCCGCCCGCCG (double strand) [FAM-13merGC]”, the binding result in [4] (setting [12]) is “binds more weakly”; in [10], “binds more weakly”; in [11] (less AT-specific than Arid5b), “binds”.

In the case of GCGAAAG [7-mer GCGAAAG], in series [3], the binding signal (RBNS z-score of enrichment R) was -0.322.

For “GGACACUAUUUUAAUUAUUUUUAAUUUAUUAAUAUUUAAAUAUGUGAAGCUGAGUUAAUU [60mer_Il6]”, the binding result in [2] (affinity scales with length) is on record as “binds”.

For GGAUGUU [7-mer GGATGTT], the binding signal (RBNS z-score of enrichment R) in series [3] (counted as no binding) was -0.849.

“GGCACAGAACUUAUGUUGUUCUCUAUGGAGAACUAAAAGUAUGAGCGUUAGGACACUAUUUUAAUUAUUUUUAAUUUAUUAAUAUUUAAAUAUGUGAAGCUGAGUUAAUUUAUGUAAGUCAUAUUUAUA [Il-6 3'UTR 129 nt]”: in [1] (1.2-fold RNA, moderate affinity), the binding result is on record as “binds more weakly”.

Consider GGCCUCUGUGAGGCC [15nt RNA], for which the binding result in series [4] (setting [13]) was “binds more weakly”.

As to GGCUCAG [7-mer GGCTCAG], in series [3], the binding signal (RBNS z-score of enrichment R) was -0.222.

Turning to “GGUCGUUGACAGGACACGAGUAACUCGUCUAUCUUCUGCAGGCUGCUUACGGUUUCGUCCGUGUUGCAGCCGAUCAUCAGCACAUCUAGGUUUCGUCCGGGUGUGACCGAAAGGUAAGAUGGAGAGCCUUGUCCCUGGUUUCAACGAGAA [150nt RNA]”, in [4] (setting [13]), the binding result was “binds”.

As to “GUGUGGCUGUCACUCGGCUGCAUGCUUAGUGCACUCACGCAGUAUAAUUAAUAACUAAUUACUG [64nt RNA]”, the binding result in series [4] (setting [13]) is “binds”.

In the case of GUUAGCU [7-mer GTTAGCT], in series [3], the binding signal (RBNS z-score of enrichment R) was -0.407.

With UCCGGAU [7-mer TCCGGAT], the binding signal (RBNS z-score of enrichment R) in [3] (counted as no binding) was -1.53.

In the case of UCGUUGG [7-mer TCGTTGG], in [3] (counted as no binding), the binding signal (RBNS z-score of enrichment R) is -2.52.

For the sequence UGACGAC [7-mer TGACGAC], the binding signal (RBNS z-score of enrichment R) in series [3] (counted as no binding) is -1.06.

Regarding UGAGUCU [7-mer TGAGTCT], the binding signal (RBNS z-score of enrichment R) in [3] was -0.668.

Consider UGUGGAU [7-mer TGTGGAT], for which the binding signal (RBNS z-score of enrichment R) in series [3] (counted as no binding) was -1.18.
